Assay results taken from patent publication US9446029B2, “Use of NK-1 receptor antagonists in management of visceral pain” (priority 2010, dated 2016).

System: dogs
Experiment: Clinical trial of analgesia and comfort in dogs during and after spay surgery (laparotomy ovariohysterectomy), isoflurane anesthesia (Example 2)
Settings: maropitant 1 mg/kg SQ or morphine 0.5 mg/kg SQ before anesthesia

Structure (SMILES): CN1CC[C@]23c4c5ccc(O)c4O[C@H]2[C@@H](O)C=C[C@H]3[C@H]1C5 [Morphine, morphine]
- isoflurane anesthesia required during ovary ligation and resection (vaporizer setting) (FIG. 2): 1.53±0.37%
- isoflurane anesthesia required during skin closure (end of surgery, FIG. 4): 1.45±0.22%
